This passage reports binding results from article doi:10.1101/2022.11.22.517464.

These are yes or no findings as the source states them, for the method shown. Some binding calls cover weakened binding; strength is not graded here.

Test [1] addresses T1, Swi2 (1–722 aa), purified in complex with Swi5 (S. pombe) (UniProt Q10668).
T1 sequence: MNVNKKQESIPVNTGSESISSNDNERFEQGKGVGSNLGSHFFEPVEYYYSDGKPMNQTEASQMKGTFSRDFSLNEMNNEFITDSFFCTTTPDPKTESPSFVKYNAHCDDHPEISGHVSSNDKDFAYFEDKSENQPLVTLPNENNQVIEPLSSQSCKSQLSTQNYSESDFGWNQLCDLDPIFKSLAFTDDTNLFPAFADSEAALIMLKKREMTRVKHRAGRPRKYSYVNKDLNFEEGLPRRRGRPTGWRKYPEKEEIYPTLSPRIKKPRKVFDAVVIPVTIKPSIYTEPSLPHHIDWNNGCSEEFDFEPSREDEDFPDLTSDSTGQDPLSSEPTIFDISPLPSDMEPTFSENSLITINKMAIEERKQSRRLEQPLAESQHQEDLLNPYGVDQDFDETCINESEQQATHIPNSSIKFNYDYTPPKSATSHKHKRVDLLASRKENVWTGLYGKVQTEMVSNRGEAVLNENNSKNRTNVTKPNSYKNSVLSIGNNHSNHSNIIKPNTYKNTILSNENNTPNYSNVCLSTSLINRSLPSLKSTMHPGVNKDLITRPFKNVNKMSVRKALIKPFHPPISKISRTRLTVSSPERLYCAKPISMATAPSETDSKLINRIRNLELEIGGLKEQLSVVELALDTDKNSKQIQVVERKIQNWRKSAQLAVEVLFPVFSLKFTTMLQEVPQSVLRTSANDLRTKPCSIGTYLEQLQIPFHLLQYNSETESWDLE
As to the kind of experiment: co-purification after co-expression.

For test [2], the target named is T2, Swi2C (392–722 aa), purified in complex with Swi5 (S. pombe) (UniProt Q10668).
T2 sequence: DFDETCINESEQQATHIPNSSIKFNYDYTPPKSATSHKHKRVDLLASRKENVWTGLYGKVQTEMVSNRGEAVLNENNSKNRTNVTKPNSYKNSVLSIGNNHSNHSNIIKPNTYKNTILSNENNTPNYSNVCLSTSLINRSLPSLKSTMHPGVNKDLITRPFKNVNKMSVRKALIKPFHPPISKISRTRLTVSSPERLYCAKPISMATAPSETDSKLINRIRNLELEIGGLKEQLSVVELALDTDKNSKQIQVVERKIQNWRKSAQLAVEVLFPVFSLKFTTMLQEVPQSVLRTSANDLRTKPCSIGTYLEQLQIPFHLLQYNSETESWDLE
As to the kind of experiment: co-purification after co-expression.

Test [3] concerns the target T3, Swi2CS (607–722 aa), purified in complex with Swi5 (S. pombe) (UniProt Q10668).
T3 sequence: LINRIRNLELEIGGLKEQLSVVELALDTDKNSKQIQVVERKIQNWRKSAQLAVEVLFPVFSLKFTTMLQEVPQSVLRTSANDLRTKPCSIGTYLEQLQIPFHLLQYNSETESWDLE
The experiment in a line: co-purification after co-expression.

Test [4] has as its target T4, Swi2S (205–722 aa), purified in complex with Swi5 (S. pombe) (UniProt Q10668).
T4 sequence: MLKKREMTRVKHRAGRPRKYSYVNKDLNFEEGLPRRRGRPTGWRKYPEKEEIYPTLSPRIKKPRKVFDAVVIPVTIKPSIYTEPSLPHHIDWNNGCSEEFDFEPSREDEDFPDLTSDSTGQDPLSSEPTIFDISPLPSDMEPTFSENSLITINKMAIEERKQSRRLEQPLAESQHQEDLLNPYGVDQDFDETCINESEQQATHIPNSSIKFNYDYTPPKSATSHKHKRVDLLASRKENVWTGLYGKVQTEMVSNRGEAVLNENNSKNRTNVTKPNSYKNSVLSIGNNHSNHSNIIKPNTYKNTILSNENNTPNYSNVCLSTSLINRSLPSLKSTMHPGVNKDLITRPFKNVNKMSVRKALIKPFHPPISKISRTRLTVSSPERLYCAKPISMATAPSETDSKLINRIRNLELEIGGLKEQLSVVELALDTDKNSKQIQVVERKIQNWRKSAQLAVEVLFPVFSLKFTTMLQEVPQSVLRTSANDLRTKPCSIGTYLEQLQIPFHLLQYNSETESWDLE
As to the kind of experiment: co-purification after co-expression.

Test [5] deals with T5, full-length Swi6 (S. pombe) (UniProt P40381).
T5 sequence: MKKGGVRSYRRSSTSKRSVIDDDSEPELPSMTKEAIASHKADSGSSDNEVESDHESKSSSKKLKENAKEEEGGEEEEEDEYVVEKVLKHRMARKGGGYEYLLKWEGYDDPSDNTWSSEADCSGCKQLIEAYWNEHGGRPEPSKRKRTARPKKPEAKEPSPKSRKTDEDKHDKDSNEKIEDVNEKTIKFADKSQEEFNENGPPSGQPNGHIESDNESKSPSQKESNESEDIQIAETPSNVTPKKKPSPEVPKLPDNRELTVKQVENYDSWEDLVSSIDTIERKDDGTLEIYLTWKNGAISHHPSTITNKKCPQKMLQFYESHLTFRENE
As to the kind of experiment: two-hybrid.

B1: Swi5 (protein, UniProt Q9UUB7 1-85)
chain: MEKSQLESRVHLLEQQKEQLESSLQDALAKLKNRDAKQTVQKHIDLLHTYNEIRDIALGMIGKVAEHEKCTSVELFDRFGVNGSE
For B1, the binding entry in test [1], in test [2], in test [3] and in test [4] was “binds” throughout.

B2: Swi2 (1–260) truncation mutant (domain or fragment, UniProt Q10668 1-260)
chain: MNVNKKQESIPVNTGSESISSNDNERFEQGKGVGSNLGSHFFEPVEYYYSDGKPMNQTEASQMKGTFSRDFSLNEMNNEFITDSFFCTTTPDPKTESPSFVKYNAHCDDHPEISGHVSSNDKDFAYFEDKSENQPLVTLPNENNQVIEPLSSQSCKSQLSTQNYSESDFGWNQLCDLDPIFKSLAFTDDTNLFPAFADSEAALIMLKKREMTRVKHRAGRPRKYSYVNKDLNFEEGLPRRRGRPTGWRKYPEKEEIYPTL
In the case of B2, the binding result in test [5] is “no binding”.

B3: Swi2 full-length (pGADT7-Swi2 full-length) (protein, UniProt Q10668 1-722)
chain: MNVNKKQESIPVNTGSESISSNDNERFEQGKGVGSNLGSHFFEPVEYYYSDGKPMNQTEASQMKGTFSRDFSLNEMNNEFITDSFFCTTTPDPKTESPSFVKYNAHCDDHPEISGHVSSNDKDFAYFEDKSENQPLVTLPNENNQVIEPLSSQSCKSQLSTQNYSESDFGWNQLCDLDPIFKSLAFTDDTNLFPAFADSEAALIMLKKREMTRVKHRAGRPRKYSYVNKDLNFEEGLPRRRGRPTGWRKYPEKEEIYPTLSPRIKKPRKVFDAVVIPVTIKPSIYTEPSLPHHIDWNNGCSEEFDFEPSREDEDFPDLTSDSTGQDPLSSEPTIFDISPLPSDMEPTFSENSLITINKMAIEERKQSRRLEQPLAESQHQEDLLNPYGVDQDFDETCINESEQQATHIPNSSIKFNYDYTPPKSATSHKHKRVDLLASRKENVWTGLYGKVQTEMVSNRGEAVLNENNSKNRTNVTKPNSYKNSVLSIGNNHSNHSNIIKPNTYKNTILSNENNTPNYSNVCLSTSLINRSLPSLKSTMHPGVNKDLITRPFKNVNKMSVRKALIKPFHPPISKISRTRLTVSSPERLYCAKPISMATAPSETDSKLINRIRNLELEIGGLKEQLSVVELALDTDKNSKQIQVVERKIQNWRKSAQLAVEVLFPVFSLKFTTMLQEVPQSVLRTSANDLRTKPCSIGTYLEQLQIPFHLLQYNSETESWDLE
On to B3, for which the binding result in test [5] is “binds”.

B4: Swi2-V274A (protein, UniProt Q10668 1-722)
chain: MNVNKKQESIPVNTGSESISSNDNERFEQGKGVGSNLGSHFFEPVEYYYSDGKPMNQTEASQMKGTFSRDFSLNEMNNEFITDSFFCTTTPDPKTESPSFVKYNAHCDDHPEISGHVSSNDKDFAYFEDKSENQPLVTLPNENNQVIEPLSSQSCKSQLSTQNYSESDFGWNQLCDLDPIFKSLAFTDDTNLFPAFADSEAALIMLKKREMTRVKHRAGRPRKYSYVNKDLNFEEGLPRRRGRPTGWRKYPEKEEIYPTLSPRIKKPRKVFDAAVIPVTIKPSIYTEPSLPHHIDWNNGCSEEFDFEPSREDEDFPDLTSDSTGQDPLSSEPTIFDISPLPSDMEPTFSENSLITINKMAIEERKQSRRLEQPLAESQHQEDLLNPYGVDQDFDETCINESEQQATHIPNSSIKFNYDYTPPKSATSHKHKRVDLLASRKENVWTGLYGKVQTEMVSNRGEAVLNENNSKNRTNVTKPNSYKNSVLSIGNNHSNHSNIIKPNTYKNTILSNENNTPNYSNVCLSTSLINRSLPSLKSTMHPGVNKDLITRPFKNVNKMSVRKALIKPFHPPISKISRTRLTVSSPERLYCAKPISMATAPSETDSKLINRIRNLELEIGGLKEQLSVVELALDTDKNSKQIQVVERKIQNWRKSAQLAVEVLFPVFSLKFTTMLQEVPQSVLRTSANDLRTKPCSIGTYLEQLQIPFHLLQYNSETESWDLE
Consider B4, for which, in test [5], the binding result was “no binding”.

B5: Swi2 (1–280) truncation mutant (domain or fragment, UniProt Q10668 1-280)
chain: MNVNKKQESIPVNTGSESISSNDNERFEQGKGVGSNLGSHFFEPVEYYYSDGKPMNQTEASQMKGTFSRDFSLNEMNNEFITDSFFCTTTPDPKTESPSFVKYNAHCDDHPEISGHVSSNDKDFAYFEDKSENQPLVTLPNENNQVIEPLSSQSCKSQLSTQNYSESDFGWNQLCDLDPIFKSLAFTDDTNLFPAFADSEAALIMLKKREMTRVKHRAGRPRKYSYVNKDLNFEEGLPRRRGRPTGWRKYPEKEEIYPTLSPRIKKPRKVFDAVVIPVTI
For the molecule B5, in test [5], the binding result is given as “binds”.
